According to the supplement of paper PMC12889115:
This is one part of the list. Values are raw readings; no control value is given beside them.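 Primary screen: polymyxin B was added at a level permeabilizing Salmonella outer membranes while sparing inner membranes. DMSO wells, both with and without polymyxin B, established maximum growth. Plate-to-plate variation meant each plate was ranked on its own, and the lowest-OD600 compounds were selected as hits.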

Tested on: Salmonella enterica serovar Typhimurium SL1344
Assay: bacterial growth OD600 after 18 h with compound and polymyxin B; higher = more bacterial growth (less inhibition)
Conditions: 50 µM, Mueller-Hinton broth

SMILES	bacterial growth OD600 (polymyxin B 1 µg/mL)	bacterial growth OD600 (polymyxin B 0.75 µg/mL)
COc1cc(-c2nc(CN(CCO)CC34CC5CC(CC(C5)C3)C4)c(C)o2)ccc1F	0.684	
CCC(=O)N1CCC2(CCCN(Cc3ccc(F)c(F)c3)C2=O)C1 (stereo unspecified)	0.972	
Cc1ccc(C)c(C(=O)N2CCC(C3(Cc4cccc(F)c4)NC(=O)N(CCN(C)C)C3=O)CC2)c1 (stereo unspecified)		0.908
O=C(c1ccc(OC2CCN(Cc3ccccn3)CC2)cc1)N1CCCC1c1nccs1 (stereo unspecified)	0.879	
O=C(C1CCCN(C2CCN(Cc3ccccc3)CC2)C1)N1CCc2[nH]ncc2C1 (stereo unspecified)		0.936
NC(=O)C1CCCN(c2ccc(-c3nc(CCCc4ccccc4)no3)cn2)C1 (stereo unspecified)		0.662
COc1ccc(N2C(=O)CN(C(=O)c3cc(CC(C)C)n[nH]3)CC23CCCC3)cc1		0.741
C=CCC(O)(CC=C)C(C)NC(=O)Cn1cc(NC(=O)CCc2ccccc2OC)cn1 (stereo unspecified)		1.01
CCc1csc(CNC(=O)c2ccc(NCC3CCCCO3)nc2)n1 (stereo unspecified)	0.845	
COc1ccc(-c2n[nH]cc2CN2CCCCC2CCNC(C)=O)c(OC)c1 (stereo unspecified)	1.2	
CN(C(=O)c1cc2ccccc2n1C)C1CCCN(Cc2ccccc2F)C1 (stereo unspecified)	0.649	
CCOC(=O)CC1CCCCN1C(=O)c1cc(COc2ccc(OC)cc2Cl)on1 (stereo unspecified)	0.736	
O=C(Nc1cccs1)NC1CC(=O)N(C2CCCCCC2)C1 (stereo unspecified)	1.18	
O=C(c1ccccn1)C1CCCN(Cc2nc(Cc3cccc(C(F)(F)F)c3)no2)C1 (stereo unspecified)	0.831	
CCS(=O)(=O)Nc1cccc(N2CCC(NC(C)c3ccccc3Cl)CC2)c1 (stereo unspecified)		0.734
O=C(NCC1(c2ccccc2)CCOCC1)C1CC12CCN(Cc1ccnc3ccccc13)CC2 (stereo unspecified)		0.815

Among those listed so far, 5 have an aryl methoxy group.
SMILES	bacterial growth OD600 (polymyxin B 1 µg/mL)	bacterial growth OD600 (polymyxin B 0.75 µg/mL)
COc1cc(-c2nc(CN(CCO)CC34CC5CC(CC(C5)C3)C4)c(C)o2)ccc1F	0.684	
COc1ccc(N2C(=O)CN(C(=O)c3cc(CC(C)C)n[nH]3)CC23CCCC3)cc1		0.741
C=CCC(O)(CC=C)C(C)NC(=O)Cn1cc(NC(=O)CCc2ccccc2OC)cn1 (stereo unspecified)		1.01
COc1ccc(-c2n[nH]cc2CN2CCCCC2CCNC(C)=O)c(OC)c1 (stereo unspecified)	1.2	
CCOC(=O)CC1CCCCN1C(=O)c1cc(COc2ccc(OC)cc2Cl)on1 (stereo unspecified)	0.736	

Next results follow:

SMILES	bacterial growth OD600 (polymyxin B 1 µg/mL)	bacterial growth OD600 (polymyxin B 0.75 µg/mL)
CCNC(=O)c1sc2ncnc(NCCCOC)c2c1C		0.84
CN(C)S(=O)(=O)N1CCC2(CCCN(Cc3ccc(F)c(F)c3)C2=O)C1 (stereo unspecified)	1.14	
O=C(NCCc1cccc(Cl)c1)C1CC(Cc2ccc3c(c2)OCO3)=NO1 (stereo unspecified)		0.006
CCCS(=O)(=O)N1CCCC(CNC(=O)c2ccccc2Cl)C1 (stereo unspecified)		0.825
CC(C)CCCC1CN(C(=O)CCc2ccc3c(c2)OCO3)CCO1 (stereo unspecified)		0.183
COc1cccc(CC(C2CCN(C(=O)/C=C/c3ccccc3F)CC2)N(C)C(=O)CC(C)C)c1 (stereo unspecified)		-0.001
O=C(CCC1CCN(C(=O)c2ccc3c(c2)OCCO3)CC1)NCc1cccnc1	0.905	
Cc1ccsc1C(=O)N(C)C1CCCN(CCc2ccccc2)C1 (stereo unspecified)		0.815
Cc1cccc(CN2CCCC3(CCN(c4ccccn4)C3)C2=O)c1 (stereo unspecified)	0.901	
Cc1nonc1C1CCCN1C(=O)C1(N2CCCCC2)Cc2ccccc2C1 (stereo unspecified)		0.014
Cc1ccc2c(c1)CN(Cc1ccccc1O)CC(c1ccsc1)O2 (stereo unspecified)		0.534
COc1cccc(-c2nn(-c3ccccc3)cc2CN(C)Cc2nonc2C)c1	0.135	
COCCn1c(-c2ccccn2)nc2cc(NC(C)=O)cc(C(=O)NCCc3ccc(F)cc3)c21		1.01
COCC1CCN(c2ccc(-c3nc(Cc4ccccc4)no3)cn2)CC1		0.004
COCCN(C)C(=O)c1cccc(-n2cc(NC(=O)Cc3cccc(C)c3)cn2)c1		0.924
